No constants are given. Whether binding was seen depends on the method and setting. In cells and extracts the contact can be indirect. A result given as binding can be weak or reduced; the word gives no strength.
Biological target: human LRP6 (human) (UniProt O75581)
Assay: co-IP; cells lysed in 1% triton lysis buffer; IP with anti-LRP6 and protein G agarose (untagged LRP6) or anti-Flag M2 affinity gel (Flag-tagged LRP6); which one was used for this co-IP is not told

By UniProt entry, the sequences of proteins in these tests, tags left out. Where a name states a change or a piece, a line headed by the entry shows the natural chain unless it says otherwise. Residues count along the entry.
UniProt O75581, residues 20-1613: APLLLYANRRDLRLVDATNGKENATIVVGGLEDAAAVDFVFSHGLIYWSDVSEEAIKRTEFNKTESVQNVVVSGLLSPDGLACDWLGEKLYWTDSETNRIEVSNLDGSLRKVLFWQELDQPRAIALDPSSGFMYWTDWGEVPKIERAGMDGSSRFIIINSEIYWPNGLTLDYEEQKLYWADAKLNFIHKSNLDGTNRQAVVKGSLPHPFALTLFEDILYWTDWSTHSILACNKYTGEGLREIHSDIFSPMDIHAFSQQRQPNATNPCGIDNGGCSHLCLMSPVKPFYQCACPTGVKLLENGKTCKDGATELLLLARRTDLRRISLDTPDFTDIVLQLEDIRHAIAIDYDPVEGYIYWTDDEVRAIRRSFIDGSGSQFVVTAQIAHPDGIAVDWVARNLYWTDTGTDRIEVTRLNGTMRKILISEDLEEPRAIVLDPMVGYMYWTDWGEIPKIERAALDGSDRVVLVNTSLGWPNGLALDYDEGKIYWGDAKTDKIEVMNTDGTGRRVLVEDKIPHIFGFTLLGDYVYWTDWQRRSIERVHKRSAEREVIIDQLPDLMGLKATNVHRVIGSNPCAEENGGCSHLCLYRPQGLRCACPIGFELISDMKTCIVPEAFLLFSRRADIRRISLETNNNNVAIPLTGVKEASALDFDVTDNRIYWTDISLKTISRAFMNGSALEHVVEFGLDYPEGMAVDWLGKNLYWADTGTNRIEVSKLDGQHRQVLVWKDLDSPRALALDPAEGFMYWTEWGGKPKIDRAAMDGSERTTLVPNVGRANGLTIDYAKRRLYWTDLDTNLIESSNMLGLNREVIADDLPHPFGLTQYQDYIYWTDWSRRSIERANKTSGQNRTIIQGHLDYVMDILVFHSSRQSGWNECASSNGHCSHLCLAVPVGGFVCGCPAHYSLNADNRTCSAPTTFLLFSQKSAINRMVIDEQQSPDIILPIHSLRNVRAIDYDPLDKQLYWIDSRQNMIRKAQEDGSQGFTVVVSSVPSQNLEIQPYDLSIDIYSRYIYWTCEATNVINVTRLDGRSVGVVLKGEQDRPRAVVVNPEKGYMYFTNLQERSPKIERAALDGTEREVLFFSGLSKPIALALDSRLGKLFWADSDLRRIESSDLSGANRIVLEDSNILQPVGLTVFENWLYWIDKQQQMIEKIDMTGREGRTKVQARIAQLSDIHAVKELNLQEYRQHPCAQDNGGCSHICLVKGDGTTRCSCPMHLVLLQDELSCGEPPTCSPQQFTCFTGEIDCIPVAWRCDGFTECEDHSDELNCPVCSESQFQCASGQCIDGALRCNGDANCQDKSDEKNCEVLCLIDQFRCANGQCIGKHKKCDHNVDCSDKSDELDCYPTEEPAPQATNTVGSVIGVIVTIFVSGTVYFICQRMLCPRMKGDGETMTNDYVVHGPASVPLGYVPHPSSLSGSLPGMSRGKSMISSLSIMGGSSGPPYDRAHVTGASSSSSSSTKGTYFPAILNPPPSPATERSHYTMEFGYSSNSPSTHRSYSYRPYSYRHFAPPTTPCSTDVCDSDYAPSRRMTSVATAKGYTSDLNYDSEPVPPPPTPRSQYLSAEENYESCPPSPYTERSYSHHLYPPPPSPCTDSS
UniProt H2L9Y5: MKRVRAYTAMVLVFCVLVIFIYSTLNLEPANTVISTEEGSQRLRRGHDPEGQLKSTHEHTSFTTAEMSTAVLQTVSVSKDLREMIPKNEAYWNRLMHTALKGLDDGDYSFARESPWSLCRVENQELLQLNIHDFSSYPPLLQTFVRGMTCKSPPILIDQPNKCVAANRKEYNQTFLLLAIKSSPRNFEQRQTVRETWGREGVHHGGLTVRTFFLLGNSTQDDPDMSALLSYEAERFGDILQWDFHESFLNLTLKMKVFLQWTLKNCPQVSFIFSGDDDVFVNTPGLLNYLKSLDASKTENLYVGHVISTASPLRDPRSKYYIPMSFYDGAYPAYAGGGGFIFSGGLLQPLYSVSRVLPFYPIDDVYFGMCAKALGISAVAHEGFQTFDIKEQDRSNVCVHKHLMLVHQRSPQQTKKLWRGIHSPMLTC

- binding: binds
Substance: Oryzias latipes (medaka) B3GnT2-like glycosyltransferase (from UniProt H2L9Y5) (enzyme)
